# Data reported in PubChem BioAssay AID1347075 (National Center for Advancing Translational Sciences (NCATS), 2019).
# In all, about 400,000 compounds went through this assay and about 5,500 (1.4%) were called active. The inconclusive results got no clear call from the source; some entries with a clear call stand among them for comparison. Calls come from the whole dose curve; as a rule, active = well fitted cell-killing curve with a large enough effect; inconclusive = small, poorly fitted or top-dose-only effect, or effect the other way; inactive = flat fitted curve, though single readings scatter. Potencies beside an inconclusive call are fits to weak or partial responses and may not hold up.
# Test: qHTS assay for MDR1-selective chemotherapeutics: Primary screen using the parental adenocarcinoma cell KB-3-1; note: nearly all actives have a fitted effect of over 60% in size
# Conditions: KB-3-1 viability, CellTiter-Glo ATP luminescence, 72 h; activity change, negative = cytotoxic: at 46.1 µM (top of the series)
# Outline: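 Parental KB-3-1 viability, qHTS format: 72 h compound exposure, 37 °C; CellTiter-Glo; media-only wells and DMSO plates as controls; concentration-effect fits on corrected data.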
# % is set by controls: 0 for no effect and ±100 for the full control effect; potency is the fitted concentration of half-maximal effect.
Structure (SMILES),Potency,"activity change, negative = cytotoxic"
CC#Cc1cc2c(cc1O)CCC1C2CCC2(C)C(O)CCC12 (stereo unspecified),active: 2.59 µM,–
O=C(Cc1cccc2ccccc12)NN1C(=O)/C(=C\c2cccnc2)SC1=S,inactive,–
COC(=O)c1ccccc1NC(=O)Cn1c(-c2nonc2N)nc2ccccc21,active: 0.631 µM,–
COCCNc1nc(NCc2ccc(NC(C)=O)cc2)c2sc(-c3ccccc3)cc2n1,"inconclusive: 29.1 µM [cytotoxic, single point]",–
Cc1nn(-c2ccccc2)c(C)c1/C=N/NC(=O)c1cc(-c2ccccc2)n[nH]1,active: 0.411 µM,–
C/C(=N\NC(=O)C1CC1)c1ccc(OC(F)F)cc1,"inconclusive: 29.1 µM [cytotoxic, single point]",–
CC[C@@H](C)[C@H](C(CC(=O)N1CCCC1[C@@H](OC)[C@H](C)C(=O)N[C@H](Cc1ccccc1)c1nccs1)OC)N(C)C(=O)[C@H](NC(=O)[C@@H](C(C)C)N(C)C)C(C)C (stereo partly specified),"inconclusive: 14.6 µM [cytotoxic, full curve, poor fit]",–
O=C(Cn1c(=O)oc2ccccc21)Nc1ccc(F)c(F)c1,inactive,–
COc1cc(C(=O)N/N=C(\C)c2ccccn2)cc(OC)c1OC,active: 6.51 µM,–
CCCCNc1nc(Nc2ccc(C)c(Cl)c2)c2cnn(C)c2n1,inactive,–
Cn1c(N)c(C(=O)COC(=O)C2=NNC(=O)CC2)c(=O)n(C)c1=O,inactive,–
CCOC(=O)c1ccc(/C=C2/C=C(c3ccccc3)N(c3ccc(Cl)c(C(=O)O)c3)C2=O)cc1,"inconclusive: 23.1 µM [cytotoxic, single point]",–
COc1nnc(-c2ccc(N3CCCCC3)c(NC(=O)c3ccccc3)c2)c2ccccc12,"inconclusive: 5.17 µM [cytotoxic, full curve]",–
CCc1cc2c(NC3CCCC3)ncnc2s1,"inconclusive: 29.1 µM [cytotoxic, single point]",–
CCSc1nc(-c2ccccc2)nc(C(Cl)Cl)n1,active: 5.17 µM,–
CC(=O)c1cccn1S(=O)(=O)c1ccccc1,"inconclusive: 0.411 µM [cytotoxic, partial curve, poor fit]",–
COC(=O)Nc1sc2c(c1C(N)=O)CCCC2,inactive,–
CC(NC(=O)c1cc(-c2ccc(Cl)cc2)on1)c1ccccc1 (stereo unspecified),"inconclusive: 29.1 µM [cytotoxic, single point]",–
CN(C)CCCN(C(=O)c1ccc(Br)s1)c1nc2cc3c(cc2s1)OCCO3,"inconclusive: 29.1 µM [cytotoxic, single point]",–
COCCc1nn2c(=O)cc(COC(=O)c3cc(OC)c(OC)c(OC)c3)nc2s1,"inconclusive: 5.17 µM [rising, partial curve, poor fit]",–
CC(C)(C)OC(=O)N(CCc1ccccc1)Cc1ccccc1OCc1ccc(NC(=O)C2CCC2)cc1,"inconclusive: 9.2 µM [cytotoxic, partial curve]",–
O=C(c1ccc(Cl)c(Cl)c1)N1CCC(=O)N(C(COCc2cccc(C(F)(F)F)c2)Cc2ccccc2)CC1 (stereo unspecified),"inconclusive: 29.1 µM [cytotoxic, single point]",–
Cc1ccc(-n2ncc3c(SCc4cccc(C)c4)ncnc32)cc1,inactive,–

Structure (SMILES),Potency,"activity change, negative = cytotoxic"
Cc1ccccc1C(=O)Nc1ccc2oc(-c3ccc(Cl)c(Cl)c3)nc2c1,inactive,–
COc1cc(S(=O)(=O)n2cnc(C)c2)ccc1Br,"inconclusive: 29.1 µM [cytotoxic, single point]",–
CCOc1cc(CN2CCSCC2)ccc1O,inactive,–
O=S(=O)(c1ccc(F)cc1)N1CCCC(c2nc(-c3ccc(F)cc3)no2)C1 (stereo unspecified),inactive,–
CCOC(=O)[C@]12CCCC=C1N(CCc1ccc(OC)c(OC)c1)C(=O)[C@H](CC(=O)NCCCCc1ccccc1)C2,"inconclusive: 29.1 µM [cytotoxic, single point]",–
Cc1ccc(Cn2c(C)c3cnn(CC(=O)N4CCN(c5ccc(F)cc5)CC4)c(=O)c3c2C)cc1,"inconclusive: 18.4 µM [cytotoxic, single point]",–
O=C(/C=C/c1ccccc1)N1CCN(Cc2cc(=O)n3nc(-c4ccccc4Cl)sc3n2)CC1,inactive,–
CCOc1ccc2nc(NCCNC(=S)NCCCN(C)C)c(C#N)cc2c1,inactive,–
O=C(CN1C(=O)C2(SCC(=O)N2c2ccc(Cl)cc2)c2ccccc21)NCCc1ccccc1 (stereo unspecified),inactive,–
CN1C(=O)C(O)(CC(=O)c2ccccn2)c2cc(Br)ccc21 (stereo unspecified),"inconclusive: 6.51 µM [cytotoxic, full curve, poor fit]",–
CC(=O)c1cc(C#N)c(N2CCN(c3ccccc3)CC2)nc1C,–,inconclusive: -35.4%
COc1cc(NC(=O)c2ccccc2[N+](=O)[O-])ccc1NC(=O)c1cc2ccccc2o1,inactive,–
COc1ccc(OC)c(C2CC(=O)c3c([nH]c(C(=O)OCC4CCCO4)c3C)C2)c1 (stereo unspecified),active: 9.2 µM,–
Cc1ccc(C(=O)C(C)OC(=O)CCN2C(=O)C3C4C=CC(C5CC45)C3C2=O)cc1 (stereo unspecified),inactive,–
Cn1c(=O)c2c(nc(CN3CCN(c4ccccc4F)CC3)n2CCCc2ccccc2)n(C)c1=O,"inconclusive: 25.9 µM [cytotoxic, single point]",–
CC(C)CCn1cnc2c(cnn2-c2ccc(Cl)cc2)c1=O,"inconclusive: 23.1 µM [cytotoxic, partial curve, poor fit]",–
CC(C)(C)NC(=O)CSc1nc(Cc2ccccc2)nc2ccccc12,inactive,–
CCOc1ccc(S(=O)(=O)Nc2ccc(OC)c(Cl)c2)c2cccnc12,inactive,–
COc1ccc(-c2cc(C(=O)OCC(=O)NC(C)C)c3ccccc3n2)cc1,"inconclusive: 6.51 µM [cytotoxic, full curve, poor fit]",–
COc1ccc(CCC(=O)NNC(=O)c2ccc(OC)cc2)cc1,"inconclusive: 1.46 µM [rising, full curve]",–
CCOc1ccc(-n2nnnc2SCC(=O)c2ccccc2)cc1,"inconclusive: 29.1 µM [cytotoxic, single point]",–
CCCCn1nnnc1C(c1ccccc1)N1CCN(CC)CC1 (stereo unspecified),inactive,–
CC(C)(C)OC(=O)N1CCC(C(=O)Nc2cccc(C(=O)NCCCc3ccccc3)c2)CC1,inactive,–

# Some of the entries above in a different format.
Structure (SMILES) | Potency | activity change, negative = cytotoxic
CCOc1cc(CN2CCSCC2)ccc1O | inactive | –
Cc1ccc(Cn2c(C)c3cnn(CC(=O)N4CCN(c5ccc(F)cc5)CC4)c(=O)c3c2C)cc1 | inconclusive: 18.4 µM [cytotoxic, single point] | –
CCOc1ccc2nc(NCCNC(=S)NCCCN(C)C)c(C#N)cc2c1 | inactive | –
CN1C(=O)C(O)(CC(=O)c2ccccn2)c2cc(Br)ccc21 (stereo unspecified) | inconclusive: 6.51 µM [cytotoxic, full curve, poor fit] | –
COc1cc(NC(=O)c2ccccc2[N+](=O)[O-])ccc1NC(=O)c1cc2ccccc2o1 | inactive | –
Cc1ccc(C(=O)C(C)OC(=O)CCN2C(=O)C3C4C=CC(C5CC45)C3C2=O)cc1 (stereo unspecified) | inactive | –
CCOc1ccc(S(=O)(=O)Nc2ccc(OC)c(Cl)c2)c2cccnc12 | inactive | –
COc1ccc(-c2cc(C(=O)OCC(=O)NC(C)C)c3ccccc3n2)cc1 | inconclusive: 6.51 µM [cytotoxic, full curve, poor fit] | –
CCOc1ccc(-n2nnnc2SCC(=O)c2ccccc2)cc1 | inconclusive: 29.1 µM [cytotoxic, single point] | –
CC(C)(C)OC(=O)N1CCC(C(=O)Nc2cccc(C(=O)NCCCc3ccccc3)c2)CC1 | inactive | –
